# Laboratory results: US20080139673A1, “POTENTIATION OF ANTIFUNGAL COMPOUNDS” (MethylGene Inc., priority 2006, published 2008)
# At least one compound was matched to its structure with a doubt left.
# Legend:
# Assay in all cases: Serial dilution sensitivity of yeast deletion strain to antifungal agents
# Type in all cases: cell-based, S. cerevisiae
# ScHOS3 deletion mutant = conditions: FIG. 13
# ScHda1 deletion mutant = conditions: FIG. 13
# ScHOS2 deletion mutant = conditions: FIGS. 4-12
# Text: Standard serial dilution techniques were used to determine sensitivity of yeast deletion strains to various antifungal agents.
structure (smiles),measurement,setting,value
CCC(C)n1ncn(-c2ccc(N3CCN(c4ccc(OCC5COC(Cn6cncn6)(c6ccc(Cl)cc6Cl)O5)cc4)CC3)cc2)c1=O (stereo not drawn) [itraconazole],hypersensitivity of ScHOS3 deletion mutant to antifungal agent,ScHOS3 deletion mutant,not hypersensitive
same,hypersensitivity of ScHda1 deletion mutant to antifungal agent,ScHda1 deletion mutant,not hypersensitive
same,hypersensitivity of ScHOS2 deletion mutant to antifungal agent,ScHOS2 deletion mutant,hypersensitive
